From patent US20160304578A1 (XYPHOS BIOSCIENCES, published 2016)
No constants are given. Whether binding was seen depends on the method and setting. Some binding calls cover weakened binding; strength is not graded here. For some assays here: Sequences can lack the tags named with a protein.

Sequences of proteins named here, by UniProt entry; tags and fusion partners are left off. Residues count along the entry.
UniProt P22607, residues 23-375: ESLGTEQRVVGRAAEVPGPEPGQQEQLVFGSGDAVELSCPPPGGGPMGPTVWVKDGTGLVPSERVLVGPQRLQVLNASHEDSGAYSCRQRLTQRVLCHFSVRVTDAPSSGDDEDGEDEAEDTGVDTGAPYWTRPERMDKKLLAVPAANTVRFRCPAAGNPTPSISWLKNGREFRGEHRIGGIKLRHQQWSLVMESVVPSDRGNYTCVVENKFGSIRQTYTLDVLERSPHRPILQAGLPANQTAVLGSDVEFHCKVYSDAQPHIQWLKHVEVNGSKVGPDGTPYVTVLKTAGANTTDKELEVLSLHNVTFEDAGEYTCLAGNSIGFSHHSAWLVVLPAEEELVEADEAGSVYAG

T1: human NKG2D-Fc (human, UniProt P26718 78-216, limits assumed)
T1 construct: not shown: Fc part
T1 sequence (looked up): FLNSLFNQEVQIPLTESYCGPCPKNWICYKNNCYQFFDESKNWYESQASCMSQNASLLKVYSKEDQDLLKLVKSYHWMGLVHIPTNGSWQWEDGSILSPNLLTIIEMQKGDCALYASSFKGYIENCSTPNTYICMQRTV

T2: mouse NKG2D-Fc (mouse) (UniProt O54709)
T2 sequence (looked up): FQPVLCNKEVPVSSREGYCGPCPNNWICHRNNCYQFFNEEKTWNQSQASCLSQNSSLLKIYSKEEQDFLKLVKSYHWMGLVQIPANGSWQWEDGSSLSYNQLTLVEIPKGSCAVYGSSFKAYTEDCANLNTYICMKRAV

T3: biotinylated human NKG2D (human, UniProt P26718 78-216, limits assumed, biotinylated (site not stated))
T3 construct: also called recombinant biotinylated NKG2D
T3 sequence (looked up): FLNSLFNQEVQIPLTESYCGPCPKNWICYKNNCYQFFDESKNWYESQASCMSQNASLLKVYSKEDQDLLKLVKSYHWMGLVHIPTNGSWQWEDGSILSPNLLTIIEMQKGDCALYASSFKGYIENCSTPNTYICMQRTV


Legend:
[1] = target: FGFR3 (coated on ELISA plates) (UniProt P22607); test: ELISA on FGFR3-coated wells after 1 hour of the protein at 70 °C and 1 hour back at room temperature
[2] = target: FGFR3 (coated on ELISA plates) (UniProt P22607); test: ELISA, FGFR3 coated at 2 ug/ml, detection with NKG2D-Fc and anti-Fc-HRP
[3] = target: FGFR3 (coated on ELISA plates) (UniProt P22607); test: ELISA on FGFR3-coated wells after 1 hour of the protein at 90 °C and 1 hour back at room temperature
[4] = target: FGFR3 (coated on ELISA plates) (UniProt P22607); test: ELISA: FGFR3 coated on the plate, sMICA protein titrated, bound protein detected with NKG2D-Fc and anti-Fc-HRP
[5] = target: FGFR3 (coated on ELISA plates) (UniProt P22607); test: ELISA, FGFR3-coated wells, detection with NKG2D-Fc
[6] = target: FGFR3 (coated on ELISA plates) (UniProt P22607); test: ELISA on FGFR3-coated wells after 1 hour of the protein at 60 °C and 1 hour back at room temperature
[7] = target: FGFR3 (coated on ELISA plates) (UniProt P22607); test: ELISA on FGFR3-coated wells after 1 hour of heat
[8] = target: T1, human NKG2D-Fc; test: ELISA, protein captured on FGFR3 is detected with NKG2D-Fc and anti-Fc-HRP
[9] = target: FGFR3 (coated on ELISA plates) (UniProt P22607); test: ELISA on FGFR3-coated wells after 1 hour of the protein at 80 °C and 1 hour back at room temperature
[10] = target: T2, mouse NKG2D-Fc (mouse); test: competition ELISA: variant titrated against mouse NKG2D-Fc binding to plate-coated WT sMICA, detection with anti-Fc-HRP
[11] = target: T2, mouse NKG2D-Fc (mouse); test: competition ELISA: mouse NKG2D-Fc binding to plate-coated MICA
[12] = target: T3, biotinylated human NKG2D; test: biolayer interferometry (Octet), biotinylated human NKG2D
[13] = target: T1, human NKG2D-Fc; test: competition ELISA: human NKG2D-Fc binding to plate-coated MICA

Binder	binding [10]	binding [11]	binding [12]	binding [13]	other results
MICA-α3-iFv.2 (designed binder) EPHSLRYNLTVLSWDGSVQSGFLTEVHLDGQPFLRCDRQKCRAKPQGQWAEDVLGNKTWDRETRDLTGNGKDLRMTLAHIKDQKEGLHSLQEIRVCEIHEDNSTRSSQHFYYDGELFLSQNLETKEWTMPQSSRAQTLAMNVRNFLKEDAMKTKTHYHAMHADCLQELRRYLKSGVVLRRTVPPMVQVTRSEASGGSGDRVTITCRASQDVSTAVAWYQQKPGKAPKLLIYSASFLYSGVPSRFSGSGSGTDFTLTISSLQPEDFATYYCQQSYTTPPTFGQGTKVEIKGGSSRSSSSGGGGSGGGGEVQLVESGGGLVQPGGSLRLSCAASGFTFTSTGISWVRQAPGKGLEWVGRIYPTNGSTNYADSVKGRFTISADTSKNTAYLQMNSLRAEDTAVYYCARTYGIYDLYVDYTEYVMDYWGQGTLVTVSSGGSSRSSSSGGGGSGGGGDIQMTQSPSSLSASGGSGQITVTCRASGFYPWNITLSWRQDGVSLSHDTQQWGDVLPDGQGTYQTWVATRISQGEEQRFTCYMEHSGQHSTHPVPSGKGSHHHHHH					binding [1]: binds; binding [2]: binds; binding [3]: binds; binding [4]: binds; binding [5]: binds; binding [6]: binds; binding [7]: binds; binding [8]: binds; binding [9]: binds
α1-α2 variant 15 (designed binder) EPHSLRYNLTVLSWDGSVQSGFLTEVHLDGQPFLRCDRQKCRAKPQGQWAEDVLGNKTWDRETRDLTGWGKDLRMTLAHIKDQKEGLHSLQEIRVCEIHEDNSTRSSQHFYYDGELFLSQNLETNEWTMPQSSRAQTLAMNVRNFLKEDAMETDTHYHAMRADCLQELRRYLKSGVVLRRTVPPMVQVTRSEASGGSGDRVTITCRASQDVSTAVAWYQQKPGKAPKLLIYSASFLYSGVPSRFSGSGSGTDFTLTISSLQPEDFATYYCQQSYTTPPTFGQGTKVEIKGGSSRSSSSGGGGSGGGGEVQLVESGGGLVQPGGSLRLSCAASGFTFTSTGISWVRQAPGKGLEWVGRIYPTNGSTNYADSVKGRFTISADTSKNTAYLQMNSLRAEDTAVYYCARTYGIYDLYVDYTEYVMDYWGQGTLVTVSSGGSSRSSSSGGGGSGGGGDIQMTQSPSSLSASGGSGQITVTCRASGFYPWNITLSWRQDGVSLSHDTQQWGDVLPDGQGTYQTWVATRISQGEEQRFTCYMEHSGQHSTHPVPSGKGSHHHHHH	binds	binds	binds	binds	
α1-α2 variant 20 (designed binder, Expressed in HEK293 (Expi293)) EPHSLRYNLTVLSWDGSVQSGFLTEVHLDGQPFLRCDRQKCRAKPQGQWAEDVLGNKTWDRETRDLTAWGKDLRMTLAHIKDQKEGLHSLQEIRVCEIHEDNSTRSSQHFYYDGELFLSQNLETLEWTMPQSSRAQTLAMNVRNFLKEDAMQTDTHYRAMHADCLFELRRYLKSGVVLRRTVPPMVQVTRSEASGGSGDRVTITCRASQDVSTAVAWYQQKPGKAPKLLIYSASFLYSGVPSRFSGSGSGTDFTLTISSLQPEDFATYYCQQSYTTPPTFGQGTKVEIKGGSSRSSSSGGGGSGGGGEVQLVESGGGLVQPGGSLRLSCAASGFTFTSTGISWVRQAPGKGLEWVGRIYPTNGSTNYADSVKGRFTISADTSKNTAYLQMNSLRAEDTAVYYCARTYGIYDLYVDYTEYVMDYWGQGTLVTVSSGGSSRSSSSGGGGSGGGGDIQMTQSPSSLSASGGSGQITVTCRASGFYPWNITLSWRQDGVSLSHDTQQWGDVLPDGQGTYQTWVATRISQGEEQRFTCYMEHSGQHSTHPVPSGKGSHHHHHH			binds		
α1-α2 variant 17 (designed binder) EPHSLRYNLTVLSWDGSVQSGFLTEVHLDGQPFLRCDRQKCRAKPQGQWAEDVLGNKTWDRETRDLTLWGKDLRMTLAHIKDQKEGLHSLQEIRVCEIHEDNSTRSSQHFYYDGELFLSQNLETLEWTMPQSSRAQTLAMNVRNFLKEDAMETDTHYHAMRADCLQELRRYLKSGVVLRRTVPPMVQVTRSEASGGSGDRVTITCRASQDVSTAVAWYQQKPGKAPKLLIYSASFLYSGVPSRFSGSGSGTDFTLTISSLQPEDFATYYCQQSYTTPPTFGQGTKVEIKGGSSRSSSSGGGGSGGGGEVQLVESGGGLVQPGGSLRLSCAASGFTFTSTGISWVRQAPGKGLEWVGRIYPTNGSTNYADSVKGRFTISADTSKNTAYLQMNSLRAEDTAVYYCARTYGIYDLYVDYTEYVMDYWGQGTLVTVSSGGSSRSSSSGGGGSGGGGDIQMTQSPSSLSASGGSGQITVTCRASGFYPWNITLSWRQDGVSLSHDTQQWGDVLPDGQGTYQTWVATRISQGEEQRFTCYMEHSGQHSTHPVPSGKGSHHHHHH	binds	binds		binds	
α1-α2 variant 18 (designed binder) EPHSLRYNLTVLSWDGSVQPGFLTEVHLDGQPFLRCDRQKCRAKPQGQWAEDVLGNKTWDRETRDLTLWGKDLRMTLAHIKDQKEGLHSLQEIRVCEIHEDNSTRSSQHFYYDGELFLSQNLETLEWTMPQSSRAQTLAMNVRNFLKEDAMETDTHYHAMRADCLQELRRYLKSGVVLRRTVPPMVQVTRSEASGGSGDRVTITCRASQDVSTAVAWYQQKPGKAPKLLIYSASFLYSGVPSRFSGSGSGTDFTLTISSLQPEDFATYYCQQSYTTPPTFGQGTKVEIKGGSSRSSSSGGGGSGGGGEVQLVESGGGLVQPGGSLRLSCAASGFTFTSTGISWVRQAPGKGLEWVGRIYPTNGSTNYADSVKGRFTISADTSKNTAYLQMNSLRAEDTAVYYCARTYGIYDLYVDYTEYVMDYWGQGTLVTVSSGGSSRSSSSGGGGSGGGGDIQMTQSPSSLSASGGSGQITVTCRASGFYPWNITLSWRQDGVSLSHDTQQWGDVLPDGQGTYQTWVATRISQGEEQRFTCYMEHSGQHSTHPVPSGKGSHHHHHH	binds	binds		binds	
